We go through 15 targets from the supplement of paper PMC6411743.

The chains behind the UniProt entries cited, without tags or fusion partners. Where a name states a change or a piece, a line headed by the entry shows the natural chain unless it says otherwise.
UniProt Q9NRX4: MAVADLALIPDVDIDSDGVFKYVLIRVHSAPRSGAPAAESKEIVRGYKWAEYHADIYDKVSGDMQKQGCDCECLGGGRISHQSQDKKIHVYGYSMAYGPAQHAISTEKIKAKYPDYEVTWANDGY
UniProt Q9NQR4: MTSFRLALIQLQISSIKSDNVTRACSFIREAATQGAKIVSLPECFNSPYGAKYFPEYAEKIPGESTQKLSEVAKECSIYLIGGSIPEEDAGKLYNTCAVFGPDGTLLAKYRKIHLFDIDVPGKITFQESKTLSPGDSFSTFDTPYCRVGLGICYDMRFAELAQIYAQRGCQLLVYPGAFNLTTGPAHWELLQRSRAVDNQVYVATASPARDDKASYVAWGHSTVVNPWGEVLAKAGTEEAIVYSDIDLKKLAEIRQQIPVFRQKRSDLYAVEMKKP
UniProt Q9H6T3, whole entry: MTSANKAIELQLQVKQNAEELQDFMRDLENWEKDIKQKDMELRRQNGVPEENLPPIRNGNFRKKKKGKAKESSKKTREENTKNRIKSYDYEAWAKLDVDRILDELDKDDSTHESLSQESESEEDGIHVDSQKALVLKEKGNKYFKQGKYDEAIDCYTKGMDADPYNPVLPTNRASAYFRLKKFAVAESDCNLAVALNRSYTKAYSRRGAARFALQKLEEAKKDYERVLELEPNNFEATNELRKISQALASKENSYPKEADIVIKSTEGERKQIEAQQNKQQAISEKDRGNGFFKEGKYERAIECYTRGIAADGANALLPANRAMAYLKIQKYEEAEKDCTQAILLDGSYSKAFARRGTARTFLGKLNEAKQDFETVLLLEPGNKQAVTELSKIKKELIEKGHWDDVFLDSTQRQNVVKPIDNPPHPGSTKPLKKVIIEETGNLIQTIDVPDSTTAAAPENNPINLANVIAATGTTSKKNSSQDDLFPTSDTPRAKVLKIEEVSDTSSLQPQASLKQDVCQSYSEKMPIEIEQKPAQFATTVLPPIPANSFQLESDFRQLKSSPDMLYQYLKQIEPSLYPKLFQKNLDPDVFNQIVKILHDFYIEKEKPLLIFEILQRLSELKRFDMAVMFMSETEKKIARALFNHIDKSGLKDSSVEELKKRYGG
UniProt Q9H1D9: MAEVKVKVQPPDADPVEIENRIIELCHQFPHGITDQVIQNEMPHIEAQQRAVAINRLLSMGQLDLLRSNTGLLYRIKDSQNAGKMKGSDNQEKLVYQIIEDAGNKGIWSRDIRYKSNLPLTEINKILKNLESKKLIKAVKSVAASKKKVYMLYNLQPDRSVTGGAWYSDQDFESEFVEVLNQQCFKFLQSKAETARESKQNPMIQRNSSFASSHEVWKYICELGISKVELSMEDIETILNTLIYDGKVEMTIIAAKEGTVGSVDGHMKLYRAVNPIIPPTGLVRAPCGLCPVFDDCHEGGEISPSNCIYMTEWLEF
UniProt Q9H089: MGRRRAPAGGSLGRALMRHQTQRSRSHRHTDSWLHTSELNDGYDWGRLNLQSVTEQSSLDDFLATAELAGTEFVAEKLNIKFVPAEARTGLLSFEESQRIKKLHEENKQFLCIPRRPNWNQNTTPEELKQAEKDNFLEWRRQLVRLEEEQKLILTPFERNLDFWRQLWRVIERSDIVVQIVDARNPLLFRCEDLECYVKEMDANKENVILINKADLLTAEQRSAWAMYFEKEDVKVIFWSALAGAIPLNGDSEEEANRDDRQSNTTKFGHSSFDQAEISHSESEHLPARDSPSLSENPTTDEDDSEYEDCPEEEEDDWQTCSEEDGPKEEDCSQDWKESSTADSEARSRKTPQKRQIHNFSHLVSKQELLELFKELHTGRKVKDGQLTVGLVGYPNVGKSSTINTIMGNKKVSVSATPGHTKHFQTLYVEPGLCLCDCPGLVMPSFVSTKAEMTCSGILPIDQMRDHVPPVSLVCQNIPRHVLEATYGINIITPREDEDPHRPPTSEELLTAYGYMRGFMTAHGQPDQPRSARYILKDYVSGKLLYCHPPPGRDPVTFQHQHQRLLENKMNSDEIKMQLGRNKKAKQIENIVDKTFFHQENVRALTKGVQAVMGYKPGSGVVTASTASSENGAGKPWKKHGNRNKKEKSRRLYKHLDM
UniProt Q9H444: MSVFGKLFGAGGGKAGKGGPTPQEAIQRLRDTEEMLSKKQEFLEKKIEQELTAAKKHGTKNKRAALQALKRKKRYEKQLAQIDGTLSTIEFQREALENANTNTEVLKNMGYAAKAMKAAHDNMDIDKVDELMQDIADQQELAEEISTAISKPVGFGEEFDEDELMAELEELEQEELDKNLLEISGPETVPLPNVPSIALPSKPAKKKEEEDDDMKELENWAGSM
UniProt Q9HCE5: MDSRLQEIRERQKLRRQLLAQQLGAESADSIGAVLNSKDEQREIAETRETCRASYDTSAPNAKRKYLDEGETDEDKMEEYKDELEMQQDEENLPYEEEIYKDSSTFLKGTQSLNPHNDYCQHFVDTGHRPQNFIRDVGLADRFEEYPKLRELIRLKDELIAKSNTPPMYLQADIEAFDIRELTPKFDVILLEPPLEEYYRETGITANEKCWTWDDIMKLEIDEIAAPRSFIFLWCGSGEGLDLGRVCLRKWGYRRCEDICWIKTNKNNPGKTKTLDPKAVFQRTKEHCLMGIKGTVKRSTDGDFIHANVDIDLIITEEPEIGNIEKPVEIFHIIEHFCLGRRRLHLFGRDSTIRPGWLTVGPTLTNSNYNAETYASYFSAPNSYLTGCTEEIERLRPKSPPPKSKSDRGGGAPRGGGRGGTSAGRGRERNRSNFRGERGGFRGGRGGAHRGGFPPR
UniProt Q9NUB1: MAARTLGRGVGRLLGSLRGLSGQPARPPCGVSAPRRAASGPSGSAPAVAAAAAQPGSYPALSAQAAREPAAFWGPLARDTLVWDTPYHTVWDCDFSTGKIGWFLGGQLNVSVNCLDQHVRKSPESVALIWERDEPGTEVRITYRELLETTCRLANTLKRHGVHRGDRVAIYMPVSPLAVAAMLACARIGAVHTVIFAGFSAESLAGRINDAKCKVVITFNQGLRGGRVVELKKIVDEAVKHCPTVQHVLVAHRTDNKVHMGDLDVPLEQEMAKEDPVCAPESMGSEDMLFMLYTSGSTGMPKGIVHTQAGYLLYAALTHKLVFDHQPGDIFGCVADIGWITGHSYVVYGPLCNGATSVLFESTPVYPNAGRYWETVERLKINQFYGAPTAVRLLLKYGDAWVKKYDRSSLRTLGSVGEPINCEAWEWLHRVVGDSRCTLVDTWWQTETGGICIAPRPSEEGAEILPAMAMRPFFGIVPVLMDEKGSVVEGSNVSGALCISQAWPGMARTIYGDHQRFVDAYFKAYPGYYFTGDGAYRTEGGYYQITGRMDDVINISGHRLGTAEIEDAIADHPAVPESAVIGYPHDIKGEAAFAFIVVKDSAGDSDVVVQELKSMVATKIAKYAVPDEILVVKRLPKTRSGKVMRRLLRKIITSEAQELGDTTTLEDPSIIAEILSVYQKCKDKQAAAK
UniProt Q9NQP4, whole entry: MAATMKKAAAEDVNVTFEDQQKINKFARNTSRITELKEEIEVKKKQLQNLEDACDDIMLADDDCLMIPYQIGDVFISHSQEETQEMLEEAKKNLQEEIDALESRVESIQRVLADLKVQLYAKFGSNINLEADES
UniProt Q9H307: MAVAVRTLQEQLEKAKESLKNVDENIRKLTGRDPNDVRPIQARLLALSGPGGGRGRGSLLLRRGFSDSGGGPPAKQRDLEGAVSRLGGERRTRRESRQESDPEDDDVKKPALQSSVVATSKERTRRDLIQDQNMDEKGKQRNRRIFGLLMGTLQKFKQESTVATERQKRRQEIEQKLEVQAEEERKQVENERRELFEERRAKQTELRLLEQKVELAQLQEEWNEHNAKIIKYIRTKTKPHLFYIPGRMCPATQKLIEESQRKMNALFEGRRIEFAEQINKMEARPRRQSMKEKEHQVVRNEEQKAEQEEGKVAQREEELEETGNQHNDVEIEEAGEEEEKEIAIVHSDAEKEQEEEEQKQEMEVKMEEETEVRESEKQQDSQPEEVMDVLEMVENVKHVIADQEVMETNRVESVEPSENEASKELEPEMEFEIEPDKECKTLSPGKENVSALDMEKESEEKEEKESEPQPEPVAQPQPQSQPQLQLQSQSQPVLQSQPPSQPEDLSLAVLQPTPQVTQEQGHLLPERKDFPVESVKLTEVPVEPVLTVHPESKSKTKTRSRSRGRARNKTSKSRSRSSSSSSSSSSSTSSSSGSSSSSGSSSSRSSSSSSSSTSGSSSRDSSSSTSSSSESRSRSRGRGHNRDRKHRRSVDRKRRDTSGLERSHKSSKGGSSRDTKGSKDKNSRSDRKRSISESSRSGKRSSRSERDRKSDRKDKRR
UniProt Q9HD20: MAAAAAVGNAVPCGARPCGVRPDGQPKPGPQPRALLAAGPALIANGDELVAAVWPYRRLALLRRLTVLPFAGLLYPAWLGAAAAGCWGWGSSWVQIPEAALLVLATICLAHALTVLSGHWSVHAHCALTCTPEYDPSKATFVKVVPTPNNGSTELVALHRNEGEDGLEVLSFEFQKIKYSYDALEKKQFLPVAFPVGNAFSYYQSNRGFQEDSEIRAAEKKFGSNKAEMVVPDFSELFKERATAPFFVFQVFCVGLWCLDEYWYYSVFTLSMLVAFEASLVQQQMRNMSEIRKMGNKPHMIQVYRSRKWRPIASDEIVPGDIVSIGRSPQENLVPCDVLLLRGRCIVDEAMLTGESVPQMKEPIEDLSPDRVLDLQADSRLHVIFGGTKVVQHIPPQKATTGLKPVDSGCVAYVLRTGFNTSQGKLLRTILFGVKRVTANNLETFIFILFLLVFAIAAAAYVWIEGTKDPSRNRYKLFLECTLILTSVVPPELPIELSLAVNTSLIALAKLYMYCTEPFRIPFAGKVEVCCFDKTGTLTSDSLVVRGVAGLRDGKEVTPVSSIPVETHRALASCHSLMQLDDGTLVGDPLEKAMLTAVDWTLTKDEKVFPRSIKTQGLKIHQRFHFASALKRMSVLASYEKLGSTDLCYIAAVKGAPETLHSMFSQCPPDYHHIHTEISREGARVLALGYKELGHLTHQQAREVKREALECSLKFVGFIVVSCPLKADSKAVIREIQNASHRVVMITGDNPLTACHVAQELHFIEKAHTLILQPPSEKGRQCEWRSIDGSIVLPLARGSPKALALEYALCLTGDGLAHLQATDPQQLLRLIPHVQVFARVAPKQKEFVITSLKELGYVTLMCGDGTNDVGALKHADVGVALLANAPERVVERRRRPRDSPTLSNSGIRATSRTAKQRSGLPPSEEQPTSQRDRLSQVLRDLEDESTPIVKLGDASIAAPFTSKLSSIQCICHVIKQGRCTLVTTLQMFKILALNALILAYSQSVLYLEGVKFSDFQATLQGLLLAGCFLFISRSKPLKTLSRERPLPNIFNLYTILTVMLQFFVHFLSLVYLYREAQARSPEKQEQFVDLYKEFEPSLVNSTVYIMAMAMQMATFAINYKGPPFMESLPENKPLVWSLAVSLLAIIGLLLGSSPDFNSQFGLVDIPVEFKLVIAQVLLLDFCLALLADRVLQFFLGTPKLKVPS
UniProt Q9H2U1: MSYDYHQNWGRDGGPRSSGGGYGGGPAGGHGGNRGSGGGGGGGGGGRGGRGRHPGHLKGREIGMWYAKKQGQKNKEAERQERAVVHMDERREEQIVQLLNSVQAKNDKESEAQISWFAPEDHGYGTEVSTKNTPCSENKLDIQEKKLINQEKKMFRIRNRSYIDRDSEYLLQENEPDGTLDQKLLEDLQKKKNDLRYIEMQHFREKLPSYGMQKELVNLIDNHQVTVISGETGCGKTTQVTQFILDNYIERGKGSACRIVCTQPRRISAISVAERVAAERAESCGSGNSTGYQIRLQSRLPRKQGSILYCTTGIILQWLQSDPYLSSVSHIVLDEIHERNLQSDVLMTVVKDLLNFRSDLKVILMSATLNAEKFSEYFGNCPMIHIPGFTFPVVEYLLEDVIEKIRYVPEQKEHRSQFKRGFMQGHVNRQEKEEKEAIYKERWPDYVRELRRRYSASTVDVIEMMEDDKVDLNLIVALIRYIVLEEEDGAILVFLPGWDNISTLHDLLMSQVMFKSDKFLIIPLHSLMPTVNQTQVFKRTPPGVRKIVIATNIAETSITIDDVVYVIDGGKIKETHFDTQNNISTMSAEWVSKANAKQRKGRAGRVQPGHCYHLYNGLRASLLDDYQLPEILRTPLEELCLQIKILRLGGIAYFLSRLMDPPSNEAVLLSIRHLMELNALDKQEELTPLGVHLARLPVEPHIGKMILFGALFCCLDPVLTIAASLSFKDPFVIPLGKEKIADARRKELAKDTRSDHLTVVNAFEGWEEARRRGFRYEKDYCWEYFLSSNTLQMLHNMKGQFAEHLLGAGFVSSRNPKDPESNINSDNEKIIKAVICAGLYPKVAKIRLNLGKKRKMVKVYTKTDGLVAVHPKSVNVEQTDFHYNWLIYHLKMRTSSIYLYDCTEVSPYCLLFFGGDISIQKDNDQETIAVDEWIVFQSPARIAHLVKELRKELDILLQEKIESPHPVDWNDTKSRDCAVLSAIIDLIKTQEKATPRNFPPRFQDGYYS

Compound in the assay: Nc1nc2c(ncn2[C@@H]2O[C@H](COP(=O)(O)OP(=O)(O)OP(=O)(O)O)[C@@H](O)[C@H]2O)c(=O)[nH]1 [guanosine triphosphate]
Description: NP40-soluble protein abundance relative to vehicle (solubility fold change) (ratio); higher = more soluble protein in presence of GTP. Summed up: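 Across three independent experiments, values are fold changes against the detergent-processed vehicle for each replicate, based on vsn-normalised intensities. The samples were Jurkat crude lysate treated with eight concentrations (0.1 to 10 mM) for 10 min at room temperature and then 3 min at 37 °C. Lysate was solubilised with 0.8% NP40 and benzonase, ultracentrifuged, and the supernatant analysed by TMT-labelled LC-MS/MS.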

± gives the standard deviation of the averaged measurements. Some of the results follow.

As to UniProt Q9NRX4 and related entries, the NP40-soluble protein abundance reads like this: (concentration: 0.1mM) 0.974 ± 0.042; (concentration: 0.5mM) 0.923 ± 0.078; (concentration: 1mM) 0.943 ± 0.084; (concentration: 2mM) 0.913 ± 0.1; (concentration: 4mM) 0.881 ± 0.09; (concentration: 6mM) 0.899 ± 0.085. Also, the NP40-soluble protein abundance stood at 0.881 ± 0.12 (concentration: 8mM) and 0.867 ± 0.082 (concentration: 10mM).

In the case of NIT2 (UniProt Q9NQR4), the NP40-soluble protein abundance was 0.947 ± 0.04 (concentration: 0.1mM); 0.958 ± 0.039 (concentration: 0.5mM); 0.891 ± 0.041 (concentration: 1mM); 0.867 ± 0.036 (concentration: 2mM); 0.856 ± 0.051 (concentration: 4mM); 0.856 ± 0.046 (concentration: 6mM). Moreover, the NP40-soluble protein abundance by setting is: (concentration: 8mM) 0.848 ± 0.055; (concentration: 10mM) 0.853 ± 0.059.

Turning to “UniProt Q9H2D6-5|Q9H2D6 and related entries”, the NP40-soluble protein abundance (concentration: 0.1mM) amounted to 1.01 ± 0.12; the NP40-soluble protein abundance (concentration: 0.5mM) is 1.02 ± 0.21; the NP40-soluble protein abundance (concentration: 1mM) was found to be 1.04 ± 0.17; the NP40-soluble protein abundance (concentration: 2mM) stood at 1.07 ± 0.19; the NP40-soluble protein abundance (concentration: 4mM) amounted to 0.982 ± 0.079; the NP40-soluble protein abundance (concentration: 6mM) amounted to 1.05 ± 0.17. The NP40-soluble protein abundance runs as follows: (concentration: 8mM) 1.03 ± 0.071; (concentration: 10mM) 0.951 ± 0.11.

For the target RPAP3 (UniProt Q9H6T3), the NP40-soluble protein abundance reads like this: (concentration: 0.1mM) 0.985 ± 0.032; (concentration: 0.5mM) 1.02 ± 0.037; (concentration: 1mM) 1.04 ± 0.02; (concentration: 2mM) 1.04 ± 0.04; (concentration: 4mM) 1.05 ± 0.039; (concentration: 6mM) 1.06 ± 0.041. Besides, the NP40-soluble protein abundance is, setting by setting: (concentration: 8mM) 1.1 ± 0.077; (concentration: 10mM) 1.07 ± 0.08.

For POLR3F (UniProt Q9H1D9), the NP40-soluble protein abundance (concentration: 0.1mM) was 1.14 ± 0.14; the NP40-soluble protein abundance (concentration: 0.5mM) amounted to 1.14 ± 0.11; the NP40-soluble protein abundance (concentration: 1mM) was determined as 1.13 ± 0.12; the NP40-soluble protein abundance (concentration: 2mM) was determined as 1.14 ± 0.098; the NP40-soluble protein abundance (concentration: 4mM) came to 1.111 ± 0.0077; the NP40-soluble protein abundance (concentration: 6mM) was 1.18 ± 0.15. The NP40-soluble protein abundance by setting is: (concentration: 8mM) 1.14 ± 0.1; (concentration: 10mM) 1.09 ± 0.079.

On to LSG1 (UniProt Q9H089), for which the NP40-soluble protein abundance came out at 1.04 ± 0.03 (concentration: 0.1mM); 1.06 ± 0.072 (concentration: 0.5mM); 1.05 ± 0.06 (concentration: 1mM); 1.05 ± 0.033 (concentration: 2mM); 1.05 ± 0.052 (concentration: 4mM); 1.06 ± 0.077 (concentration: 6mM). For the same target, the NP40-soluble protein abundance runs as follows: (concentration: 8mM) 1.08 ± 0.096; (concentration: 10mM) 1.11 ± 0.063.

For the target BIRC6 (UniProt Q9NR09), the NP40-soluble protein abundance was determined as 1.04 ± 0.096 (concentration: 0.1mM); 1.12 ± 0.15 (concentration: 0.5mM); 1.15 ± 0.14 (concentration: 1mM); 1.21 ± 0.17 (concentration: 2mM); 1.19 ± 0.2 (concentration: 4mM); 1.19 ± 0.22 (concentration: 6mM). The NP40-soluble protein abundance runs as follows: (concentration: 8mM) 1.17 ± 0.22; (concentration: 10mM) 1.14 ± 0.18.

Turning to CHMP4B (UniProt Q9H444), the NP40-soluble protein abundance runs as follows: (concentration: 0.1mM) 1.03 ± 0.047; (concentration: 0.5mM) 1.03 ± 0.037; (concentration: 1mM) 1.09 ± 0.041; (concentration: 2mM) 1.05 ± 0.062; (concentration: 4mM) 1.02 ± 0.077; (concentration: 6mM) 1.06 ± 0.13. For the same target, the NP40-soluble protein abundance is, setting by setting: (concentration: 8mM) 1.16 ± 0.035; (concentration: 10mM) 1.16 ± 0.033.

Turning to UniProt Q9HCE5, the NP40-soluble protein abundance stood at 0.962 ± 0.02 (concentration: 0.1mM); 0.998 ± 0.04 (concentration: 0.5mM); 0.889 ± 0.012 (concentration: 1mM); 0.889 ± 0.022 (concentration: 2mM); 0.857 ± 0.033 (concentration: 4mM); 0.896 ± 0.044 (concentration: 6mM). For the same target, the NP40-soluble protein abundance is, setting by setting: (concentration: 8mM) 0.891 ± 0.039; (concentration: 10mM) 0.847 ± 0.03.

For the target UniProt Q9NUB1 and related entries, the NP40-soluble protein abundance was found to be 1.05 ± 0.046 (concentration: 0.1mM); 1.03 ± 0.046 (concentration: 0.5mM); 0.94 ± 0.04 (concentration: 1mM); 0.922 ± 0.061 (concentration: 2mM); 0.937 ± 0.052 (concentration: 4mM); 0.908 ± 0.058 (concentration: 6mM). The NP40-soluble protein abundance worked out at 0.897 ± 0.084 (concentration: 8mM) and 0.86 ± 0.092 (concentration: 10mM).

Consider PFDN4 (UniProt Q9NQP4), for which the NP40-soluble protein abundance (concentration: 0.1mM) turned out to be 0.931 ± 0.062; the NP40-soluble protein abundance (concentration: 0.5mM) is 0.953 ± 0.13; the NP40-soluble protein abundance (concentration: 1mM) is 1.01 ± 0.12; the NP40-soluble protein abundance (concentration: 2mM) came to 0.944 ± 0.12; the NP40-soluble protein abundance (concentration: 4mM) was 0.939 ± 0.18; the NP40-soluble protein abundance (concentration: 6mM) turned out to be 0.941 ± 0.16. Also, the NP40-soluble protein abundance is, setting by setting: (concentration: 8mM) 0.958 ± 0.12; (concentration: 10mM) 0.977 ± 0.15.

With PNN (UniProt Q9H307), the NP40-soluble protein abundance reads like this: (concentration: 0.1mM) 1.06 ± 0.029; (concentration: 0.5mM) 1.09 ± 0.024; (concentration: 1mM) 1.26 ± 0.15; (concentration: 2mM) 1.17 ± 0.1; (concentration: 4mM) 1.1 ± 0.25; (concentration: 6mM) 0.942 ± 0.22. Also, the NP40-soluble protein abundance turned out to be 0.955 ± 0.25 (concentration: 8mM) and 0.97 ± 0.27 (concentration: 10mM).

Take UniProt Q9HD20 and related entries: the NP40-soluble protein abundance is, setting by setting: (concentration: 0.1mM) 1.07 ± 0.015; (concentration: 0.5mM) 1.03 ± 0.049; (concentration: 1mM) 0.9141 ± 0.0074; (concentration: 2mM) 0.962 ± 0.034; (concentration: 4mM) 0.941 ± 0.05; (concentration: 6mM) 0.917 ± 0.016. Further, the NP40-soluble protein abundance is 0.892 ± 0.053 (concentration: 8mM) and 0.874 ± 0.079 (concentration: 10mM).

With UniProt Q9H2U1 and related entries, the NP40-soluble protein abundance worked out at 1.02 ± 0.027 (concentration: 0.1mM); 1.07 ± 0.061 (concentration: 0.5mM); 0.998 ± 0.044 (concentration: 1mM); 1.03 ± 0.043 (concentration: 2mM); 0.988 ± 0.042 (concentration: 4mM); 1.03 ± 0.056 (concentration: 6mM). Further, the NP40-soluble protein abundance by setting is: (concentration: 8mM) 1.02 ± 0.04; (concentration: 10mM) 0.9909 ± 0.00082.

On to UniProt Q9H944 and related entries, for which the NP40-soluble protein abundance runs as follows: (concentration: 0.1mM) 1 ± 0.046; (concentration: 0.5mM) 1.01 ± 0.05; (concentration: 1mM) 0.928 ± 0.034; (concentration: 2mM) 0.984 ± 0.019; (concentration: 4mM) 0.976 ± 0.025; (concentration: 6mM) 0.986 ± 0.029. For the same target, the NP40-soluble protein abundance amounted to 0.9381 ± 0.0083 (concentration: 8mM) and 0.934 ± 0.029 (concentration: 10mM).
